{"source": "paper doi:10.1101/495820", "target": "T1, SmcH-CC100(3A-hng) K666A,K667A,K668A (Bacillus subtilis) (UniProt P51834)", "T1 sequence (looked up, limits assumed)": "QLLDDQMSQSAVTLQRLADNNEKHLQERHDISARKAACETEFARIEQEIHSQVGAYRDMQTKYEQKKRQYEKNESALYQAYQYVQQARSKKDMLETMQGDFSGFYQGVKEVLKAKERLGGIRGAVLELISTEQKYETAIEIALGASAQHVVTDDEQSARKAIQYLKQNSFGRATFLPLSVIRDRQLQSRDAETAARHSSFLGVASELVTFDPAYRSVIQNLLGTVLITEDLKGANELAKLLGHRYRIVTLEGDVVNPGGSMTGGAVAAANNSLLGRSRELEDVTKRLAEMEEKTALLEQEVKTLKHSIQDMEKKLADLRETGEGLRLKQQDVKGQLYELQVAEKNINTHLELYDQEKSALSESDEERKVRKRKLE", "assay": "fluorescence anisotropy", "note": "The exact form of at least one protein or probe is not confirmed. Weaker means in comparison with the reference protein, sequence or condition of that experiment. Protein sequences can lack the tags named with them.", "data": [{"sequence": "TTAGTTGTTCGTAGTGCTCGTCTGGCTCTGGATTACCCGC (double strand) [40 bp random-sequence dsDNA]", "values": [{"measurement": "binding result", "value": "binds more weakly"}]}]}
